# Laboratory results taken from PubChem BioAssay AID1487 (National Center for Advancing Translational Sciences (NCATS), 2009).
# The list shows a part of the results. The main result of the screen is listed elsewhere. These columns were measured beside it and carry no call. Most of these compounds were active or inconclusive in the main read-out, so they are no random draw. Potencies come from curve fits of mixed quality, noted in brackets.
# Assay: qHTS Assay for Modulators of Lamin A Splicing
# Conditions: HeLa LMNA splicing GFP/RFP minigene ratio, 48 h
# Summary of the method: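 Read-out is the ratio of GFP to DsRed2 object intensity, acquired by 488 nm laser-scanning cytometry on HeLa lamin A-EGFP minigene reporter cells. Compound incubation 48 hrs at 37 °C in Opti-MEM with 2% FBS; DMSO 0.5% final.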
# [1] = measured here: RFP viability control channel
# [2] = measured here: GFP splicing reporter channel
Compound,AC50 [1],AC50 [2]
Cc1cccc(C(=O)NC(=S)N2CCc3ccccc3C2)c1,"10 µM [rising, partial curve]",
COc1cccc(Nc2ncc3nc(-c4ccccc4)c(=O)n(Cc4cccs4)c3n2)c1,"22.4 µM [falling, partial curve, poor fit]","22.4 µM [falling, partial curve, poor fit]"
Cc1ccc(-c2csc(N/N=C/c3ccco3)n2)c(C)c1,"3.98 µM [rising, full curve]",
O=C(Nc1cccc(NS(=O)(=O)c2ccc(S(=O)(=O)NC3CC3)cc2)c1)c1ccccn1,"12.6 µM [rising, partial curve, poor fit]","8.91 µM [rising, partial curve, poor fit]"
CC(C)NC(=O)C1CCCN(c2ncnc3c2nc2n3CCCCC2)C1 (stereo not given),,"0.0224 µM [falling, full curve, poor fit]"
CCCCc1nc2ccccc2c(NC(=O)CN2CCN(C)CC2)c1CCC,"0.0158 µM [falling, full curve, poor fit]",
CCc1ccc(C2=NNC(=Nc3cccc(S(=O)(=O)N(C)C)c3)SC2)cc1,"7.08 µM [rising, partial curve]",
CSCc1nnc(NC(=O)c2ccc(S(=O)(=O)N(CC(C)C)CC(C)C)cc2)o1,"22.4 µM [falling, single point]",
O=S(=O)(c1ccc(-c2csc(-c3cccnc3)n2)cc1)N1CCOCC1,"3.55 µM [falling, single point]",
CC(CNS(=O)(=O)c1ccc2c(c1)CC(=O)N2C)c1ccccc1 (stereo not given),"35.5 µM [rising, partial curve, poor fit]","14.1 µM [rising, partial curve, poor fit]"
COc1ccc(NC(=S)Nc2ncccc2C)cc1OC,"0.00316 µM [falling, full curve, poor fit]",
CCOc1ccccc1NC(=S)Nc1ncccc1C,"35.5 µM [rising, single point]",
COC(=O)/C(=C/c1c[nH]c2ccccc12)NC(C)=O,"35.5 µM [falling, single point]","31.6 µM [falling, single point]"
O=C(Nc1nc(-c2cccs2)cs1)c1ccc(Cl)cc1,"14.1 µM [rising, single point]",
O=C(NCc1cccn1Cc1ccccc1)Nc1cccc(C(F)(F)F)c1,"11.2 µM [falling, partial curve, poor fit]","35.5 µM [falling, single point]"
O=C(NCCCN=C1NS(=O)(=O)c2ccccc21)c1ccc(S(=O)(=O)N2CCCCC2)cc1,"15.8 µM [rising, single point]",
CCOc1cccc(C2c3[nH]c4ccccc4c3CCN2C(=O)c2ccccc2F)c1 (stereo not given),"20 µM [rising, partial curve, poor fit]","0.316 µM [rising, full curve, poor fit]"
Brc1ccc(Sc2cnc3ccccc3n2)cc1,,"3.55 µM [rising, partial curve, poor fit]"
COc1cc(OC)c(S(=O)(=O)NCc2cccnc2)cc1NC(C)=O,,"0.398 µM [falling, full curve, poor fit]"
Cc1ccc(NC(=O)c2ccccc2NS(=O)(=O)c2ccc(Cl)s2)cc1S(=O)(=O)N1CCOCC1,"3.16 µM [rising, full curve]","3.16 µM [rising, full curve]"
CC(=O)Nc1c(I)c(NC(C)=O)c(I)c(C(=O)O)c1I,"0.00447 µM [falling, full curve, poor fit]",
O=C(NCc1cccn1Cc1ccccc1)Nc1ccc(Br)cc1F,,"22.4 µM [falling, partial curve, poor fit]"
CCOC(=O)N1CCN(C(=O)c2cc3c(-c4ccc(Cl)cc4)nn(C)c3s2)CC1,,"35.5 µM [rising, single point]"
O=C(NCc1ccc(Cl)cc1)c1ccc(-c2ccccc2C(F)(F)F)o1,"31.6 µM [rising, single point]","20 µM [rising, single point]"
N#CCCn1cc(C=O)c(-c2cccs2)n1,"0.0141 µM [falling, full curve, poor fit]",
COc1ccc(OC2C(=O)N(Cc3ccc4c(c3)OCO4)C2c2sccc2C)cc1 (stereo not given),,"12.6 µM [falling, partial curve]"
COC(=O)c1ccc(NC(=S)Nc2cccc(C)n2)cc1,,"35.5 µM [rising, partial curve, poor fit]"
CCC1CCCCN1C(=O)CSc1nnc(-c2cccc(Cl)c2)o1 (stereo not given),"22.4 µM [rising, single point]",

Compound,AC50 [1],AC50 [2]
O=C(Nc1ccncc1)Nc1ccccn1,"12.6 µM [falling, single point]",
COc1cc2nc(N3CCN(C(=O)OCc4ccccc4)C(C(=O)NC(C)(C)C)C3)nc(N)c2cc1OC (stereo not given),,"12.6 µM [falling, partial curve]"
O=C(CN1C(=O)c2cccc3cccc1c23)N1CCc2ccccc2C1,"3.16 µM [rising, partial curve]",
COC(=O)c1c(NC(=O)CN(c2ccccc2)S(C)(=O)=O)sc2c1CCCC2,"15.8 µM [rising, partial curve]","11.2 µM [rising, partial curve, poor fit]"
CCN(CC)S(=O)(=O)c1ccc2c(c1)nc(CN(C)C(=O)Nc1ccc(Cl)cc1)n2C,"10 µM [falling, partial curve, poor fit]",
COc1ccccc1N1CCN(C(=O)c2ccc(C(C)(C)C)cc2)CC1,"22.4 µM [rising, single point]",
O=[N+]([O-])c1ccccc1/C=N/n1c(-c2cccnc2)n[nH]c1=S,"0.126 µM [rising, partial curve, poor fit]",
COc1cc(/C=C/C2=CC(C)(C)NC(=S)N2)cc(OC)c1OC,,"1 µM [falling, full curve, poor fit]"
CCCNC(=O)c1nc(C)n(-c2ccc([N+](=O)[O-])cc2)n1,"11.2 µM [falling, single point]",
CCOP(=O)(OCC)C(Nc1ccc([N+](=O)[O-])cc1)c1ccc(Cl)cc1 (stereo not given),,"8.91 µM [falling, partial curve, poor fit]"
O=S(=O)(c1ccc(NC2CCCc3ccccc32)nc1)N1CCOCC1 (stereo not given),"31.6 µM [rising, single point]",
CCCN(CCC)S(=O)(=O)c1ccc2c(c1)N(CC(=O)NCc1ccc(F)cc1Cl)C(=O)CS2,,"17.8 µM [falling, partial curve, poor fit]"
OCC1(Cc2ccccc2)CCCN(Cc2cnn(-c3ccccc3)c2)C1 (stereo not given),"0.891 µM [falling, partial curve]","15.8 µM [falling, partial curve]"
COC(=O)c1ccc(CSc2ncnc3ccccc23)o1,,"35.5 µM [falling, single point]"
NC(=S)n1[nH]c(-c2ccc([N+](=O)[O-])cc2)c(N=Nc2cccc([N+](=O)[O-])c2)c1=O,"12.6 µM [falling, single point]","35.5 µM [falling, single point]"
O=C(/C=C/c1ccc([N+](=O)[O-])cc1)NCc1cccs1,"15.8 µM [rising, single point]","11.2 µM [rising, partial curve]"
CCCC(=O)Nc1ccc(N2CCN(C(=O)c3ccccc3C)CC2)cc1,,"25.1 µM [falling, single point]"
CN(C)C(=O)c1ccc(-c2ccc3ncnc(NCc4ccccc4)c3c2)cc1,,"15.8 µM [falling, single point]"
CCOc1ccc(OCc2cccc(C(=O)Nc3ccc(CN4CCCCC4)cc3)c2)cc1,"25.1 µM [rising, single point]","14.1 µM [rising, single point]"
O=C(Nc1cccc(Cl)c1)N(CCN1CCOCC1)Cc1cccc(Cl)c1,"35.5 µM [rising, single point]",
Cc1ccc(S(=O)(=O)c2c(C(=O)c3ccccc3)cnc3cc4c(cc23)OCCO4)cc1,"5.01 µM [rising, full curve]",
CC1(C)C(=O)OC(/C=C\c2ccccc2)C(C)(C)C1=O (stereo not given),"3.98 µM [rising, partial curve, poor fit]",
COc1ccc(NC(=O)Nc2nc3c(s2)CCCC3)cc1,"11.2 µM [rising, partial curve]",
Cc1nn(C)cc1CN(C)Cc1ccc(OCC(O)CN2CCCCC2)cc1 (stereo not given),"0.0224 µM [rising, full curve, poor fit]","0.0224 µM [rising, full curve, poor fit]"
O=C(CSc1nc(-c2ccccc2)cs1)Nc1cccc([N+](=O)[O-])c1,"3.55 µM [rising, single point]",
Cc1ccc(C(=O)Nc2ccc(S(=O)(=O)O)c3cc(S(=O)(=O)O)cc(S(=O)(=O)O)c23)cc1NC(=O)c1cccc(NC(=O)Nc2cccc(C(=O)Nc3cc(C(=O)Nc4ccc(S(=O)(=O)O)c5cc(S(=O)(=O)O)cc(S(=O)(=O)O)c45)ccc3C)c2)c1,,"0.708 µM [rising, full curve]"
Cn1cc(C2=C(c3ccc(Cl)cc3Cl)C(=O)NC2=O)c2ccccc21,"6.31 µM [rising, full curve]","12.6 µM [falling, partial curve, poor fit]"

# By substructure: the entries above with a furan ring, fused or not (3)
Compound,AC50 [1],AC50 [2]
Cc1ccc(-c2csc(N/N=C/c3ccco3)n2)c(C)c1,"3.98 µM [rising, full curve]",
O=C(NCc1ccc(Cl)cc1)c1ccc(-c2ccccc2C(F)(F)F)o1,"31.6 µM [rising, single point]","20 µM [rising, single point]"
COC(=O)c1ccc(CSc2ncnc3ccccc23)o1,,"35.5 µM [falling, single point]"
